Values from PubChem BioAssay AID1671195 (Yale University, 2021)
The whole screen tested about 22,000 reagents; below is an unselected part. About 1,510 of them (6.9%) count as active. 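Active includes knockdowns raising or lowering LDL uptake; positive z-scores mean more uptake, negative mean less.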 No sequences are given here.

Assay: 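Knockdowns that increase or decrease uptake of fluorescent LDL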 (primary screen)
System: human Huh7 hepatoma cells
Knock-down reagent: siRNA pool against human genes, 18 nM
Duration: about 2 to 2.5 days of knockdown, then 8 h LDL uptake
Conditions: DiI-labelled LDL at 30 µg/ml for 8 h, in lipoprotein-deficient serum medium
Read-out: 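Per-cell DiI-LDL intensity by automated imaging; well means scaled to the plate median and given as a robust z-score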
Reading the numbers: robust z-score: higher = more LDL uptake after knockdown
Rule for the call: 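a gene counts as active if at least two replicate z-scores exceed ±2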

The first 9 records as a preview:
target gene	robust z-score, replicate 1	robust z-score, replicate 2	robust z-score, replicate 3	outcome
LOC400701 (retired record) (GeneID 400701)	0.546	0.435	0.423	inactive
GCG (GeneID 2641)	-0.849	-0.633	-1.06	inactive
FAM86B3P (GeneID 286042)	0.321	0.509	-0.00332	inactive
ZNF594 (GeneID 84622)	0.0941	0.283	-0.266	inactive
PSMD1 (GeneID 5707)	0.911	1.06	0.993	inactive
SGK1 (GeneID 6446)	1	0.551	0.595	inactive
BRD2 (GeneID 6046)	-0.64	0.562	-0.208	inactive
SEC13 (GeneID 6396)	0.642	2.21	-0.245	inactive
BDKRB1 (GeneID 623)	-2.13	0.635	0.264	inactive

Main list, repeating the preview:
target gene	robust z-score, replicate 1	robust z-score, replicate 2	robust z-score, replicate 3	outcome
LOC400701 (retired record) (GeneID 400701)	0.546	0.435	0.423	inactive
GCG (GeneID 2641)	-0.849	-0.633	-1.06	inactive
FAM86B3P (GeneID 286042)	0.321	0.509	-0.00332	inactive
ZNF594 (GeneID 84622)	0.0941	0.283	-0.266	inactive
PSMD1 (GeneID 5707)	0.911	1.06	0.993	inactive
SGK1 (GeneID 6446)	1	0.551	0.595	inactive
BRD2 (GeneID 6046)	-0.64	0.562	-0.208	inactive
SEC13 (GeneID 6396)	0.642	2.21	-0.245	inactive
BDKRB1 (GeneID 623)	-2.13	0.635	0.264	inactive
CTSZ (GeneID 1522)	0.627	0.141	0.0429	inactive
PSORS1C2 (GeneID 170680)	1.41	1.34	1.09	inactive
CLUH (GeneID 23277)	-1.41	0.593	-0.787	inactive
THAP9 (GeneID 79725)	-0.114	0.433	0.877	inactive
MBOAT7 (GeneID 79143)	-0.302	-0.363	0.752	inactive
GPR156 (GeneID 165829)	-1.32	-1.36	-1.68	inactive
ALOX12B (GeneID 242)	-0.337	-0.611	-1.19	inactive
ANGPTL2 (GeneID 23452)	0.359	1.16	1.76	inactive
LOC391800 (retired record) (GeneID 391800)	0.564	0.358	0.147	inactive
ALDH2 (GeneID 217)	-0.707	-0.534	-0.437	inactive
AKR1E2 (GeneID 83592)	-0.133	1.09	0.217	inactive
THBS4 (GeneID 7060)	-1.06	-1.24	-0.515	inactive
LMO3 (GeneID 55885)	-1.63	-1.27	-1.48	inactive
CAP1 (GeneID 10487)	0.563	0.796	0.0387	inactive
EOMES (GeneID 8320)	-0.979	-1.43	-1.36	inactive
LOC105378085 (GeneID 105378085)	-0.555	-2.06	-1.86	inactive
KRTAP6-3 (GeneID 337968)	0.639	0.619	0.455	inactive
DACH1 (GeneID 1602)	3.82	2.78	3.1	active
ZNF550 (GeneID 162972)	-0.637	-0.228	-0.539	inactive
GATA2 (GeneID 2624)	0.335	0.298	0.374	inactive
NPM2 (GeneID 10361)	-0.618	-0.697	-0.681	inactive
NDRG2 (GeneID 57447)	-0.71	-1.11	-1	inactive
HIF1AN (GeneID 55662)	0.189	0.194	-0.215	inactive
LOC389888 (retired record) (GeneID 389888)	0.852	0.975	0.764	inactive
MRPL46 (GeneID 26589)	1	1.06	0.0519	inactive
MARCHF6 (GeneID 10299)	-0.553	1.07	0.0814	inactive
PCDHGA11 (GeneID 56105)	1.49	1.71	1.44	inactive
LOC285188 (retired record) (GeneID 285188)	0.199	-0.0971	-0.171	inactive
GLIPR1 (GeneID 11010)	-0.166	0.928	0.33	inactive
ARHGAP4 (GeneID 393)	-1.19	-1.14	-0.97	inactive
MCL1 (GeneID 4170)	-1.2	-1.49	-0.872	inactive
ZNF266 (GeneID 10781)	-0.163	-0.299	-0.322	inactive
NME7 (GeneID 29922)	1.2	0.00991	0.453	inactive
LOC143243 (retired record) (GeneID 143243)	-1.4	-2.23	-0.845	inactive
RASEF (GeneID 158158)	-1.15	-1.24	-1.04	inactive
NLGN1 (GeneID 22871)	-1.69	-1.6	-1.56	inactive
OR11H13P (GeneID 440159)	-0.651	-1.31	-0.711	inactive
MRGPRX4 (GeneID 117196)	-0.677	-0.506	-0.0392	inactive
TENM4 (GeneID 26011)	1.33	1.21	1.99	inactive
LCP2 (GeneID 3937)	0.608	0.41	1.17	inactive
LRSAM1 (GeneID 90678)	-0.611	-0.315	-0.54	inactive
DGLUCY (GeneID 80017)	0.0533	0.412	-0.278	inactive
LOC284912 (GeneID 284912)	0.474	0.993	0.973	inactive
DIRAS3 (GeneID 9077)	-0.346	-0.143	-0.0718	inactive
PLPBP (GeneID 11212)	0.457	0.806	0.456	inactive
PRICKLE3 (GeneID 4007)	2.36	2.57	1.14	active
ITPK1 (GeneID 3705)	-0.0198	0.924	0.494	inactive
MTPAP (GeneID 55149)	0.691	0.0947	2.08	inactive
PTPN9 (GeneID 5780)	-0.73	-0.645	-0.638	inactive
ARL8B (GeneID 55207)	1.31	0.7	-0.172	inactive
LOC100288884 (GeneID 100288884)	-0.136	-0.00214	-0.535	inactive
LOC401182 (retired record) (GeneID 401182)	0.505	0.272	1.27	inactive
TTC5 (GeneID 91875)	0.477	0.435	0.774	inactive
CDC27 (GeneID 996)	0.867	0.54	0.321	inactive
MTHFS (GeneID 10588)	-1.63	0.173	0.104	inactive
PRDM9 (GeneID 56979)	-0.315	-0.148	-0.156	inactive
RPAIN (GeneID 84268)	-0.719	-0.877	-1.16	inactive
SLC35F6 (GeneID 54978)	-0.302	0.508	0.104	inactive
SPSB1 (GeneID 80176)	-1.85	-2.25	-2.09	active
LOC441153 (retired record) (GeneID 441153)	-0.566	-1.17	-1.49	inactive
LOC441653 (retired record) (GeneID 441653)	-0.348	-0.91	-0.658	inactive
RAP2B (GeneID 5912)	0.725	-0.0467	1.96	inactive
CBX6 (GeneID 23466)	-0.82	-1.61	-0.346	inactive
SIRPB2 (GeneID 284759)	-0.688	-0.646	-0.312	inactive
TRIM32 (GeneID 22954)	1.33	1.8	1.48	inactive
STARD6 (GeneID 147323)	1.06	1.83	0.739	inactive
LCE5A (GeneID 254910)	-0.508	-0.472	-0.647	inactive
OR5H2 (GeneID 79310)	-0.567	-0.524	-0.157	inactive
DCN (GeneID 1634)	1.09	-0.417	0.0941	inactive
TPPP2 (GeneID 122664)	0.204	-0.352	-0.646	inactive
GBA3 (GeneID 57733)	0.432	0.478	1.05	inactive
CABIN1 (GeneID 23523)	0.978	-1.96	0.477	inactive
KRTAP17-1 (GeneID 83902)	-1.11	-1.01	-0.347	inactive
GRIK3 (GeneID 2899)	-0.671	-1.2	-0.366	inactive
RAB5A (GeneID 5868)	-1.27	0.335	-1.41	inactive
LMCD1 (GeneID 29995)	-2.44	-0.338	-0.73	inactive
OR5A2 (GeneID 219981)	-0.105	-0.64	0.422	inactive
SCN7A (GeneID 6332)	0.537	0.263	0.805	inactive
